Screen size: about 53,000 sequences; about 3,700 (7%) were called active.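 How the source made its calls: active means gene knockdowns whose robust z-score for IL-1 alpha signal is at least 2 or at most -2, so actives lie on both sides; inactive means the rest.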 The list shows a part of the results.

This assay in a line: Components of the Cytosolic LPS Sensing Pathway: Gene Identification via Genome-wide siRNA Screen.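 Further: robust z of the log signal after scaling to non-targeting control siRNA wells of the plate.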 Conditions: RAW264.7 macrophages, IL-1a HTRF, actives lie on both sides, screened at 100 nM (by protocol), cells primed 5 h with Pam3CSK4 first. An outline of the steps: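 RAW264.7 mouse macrophages reverse-transfected with single siRNAs (100 nM final) for 48h, primed with Pam3CSK4 for 5 hours, then transfected with LipidA for 24 hour. Supernatant IL-1a read by HTRF; values normalized to negative-control median, log-transformed robust z-scores.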
(In TR-FRET formats the signal depends on donor and acceptor labels being close together.)
As for GCGAUCGCCAAAAUCCGGUTT against Ptpmt1, the z-score is inactive: 1.3.
On to GGCUCAAGCACAUAGGAUCTT against Pdlim4, for which the z-score was inactive: 0.143.
Next, CCCAACACCCAAUAAAGUUTT against Med25: inactive: 0.171.
As for GGUACAGCGGAGAUGUACATT against Nqo2, the z-score was inactive: 0.54.
Then CCCAAUAAAACUUCCGGGATT against Ttc36, with inactive: 1.14; and GGAAAAAUUGCUUCUGACCTT against Rad51b, with inactive: -1.17.
Take GGUCUAUCCAGGAAAAUGGTT against Uxs1: the z-score is inactive: -1.42.
With GUACCUACUUCACCACCAUTT against Tmem203, the z-score was inactive: -0.517.
Then GGGCAUGGAACAAGAUGUCTT against Nckipsd, with active: -2.43.
Then GGUUAUAAACCAGAAGAGUTT against Mill2, with inactive: 0.807; and GGUGAAGAGCCACAAGUUCTT against Prkcg, with inactive: 0.428; and GCAGUAAAAUGACAUUUGGTT against Dennd6b, with inactive: 0.694.
Next, GCUUCAGUAUUUAUUUGCUTT against Usp28: active: 2.27.
Take GGUUACAUAUCAGUUGAAATT against Slc35a3: the z-score was inactive: 0.032.
On to “GGGUAGGUAUCAAAAUAAUTT against 6030452D12Rik”, for which the z-score was inactive: 0.172.
In the case of UGGGAUCUUCGUUUAAUGATT against Syncrip, the z-score is inactive: 0.34.
Then GCCUCGAGUAGAGUAUUCUTT against Tmem150c, with inactive: 0.831; and GGCUUUGUCUACACUUUCATT against Olfr1308, with inactive: -1.02; and CGAAUUGUCUUUCUCACUATT against Olfr769, with inactive: 0.069.
Then GCUGUAUAACGAGAUUGAATT against Ptges3l, with inactive: -1.81; and GGAUUUCAGUGUCUAGAAGTT against Frmd4b, with inactive: 0.391; and GCGGAAUUUGAUCACAUCCTT against Acp7, with inactive: -1.48.
Regarding CCAAUAAGGUCUCUGCCCATT against Trit1, the z-score was inactive: 0.402.
GUCGCACCGUAUUCACUGATT against Barx1: the z-score was inactive: 0.389.
On to GGGUGAACUUACAGAAAUATT against Olfr214, for which the z-score was inactive: -0.405.
Then GCGGAUUAUUUACAACACUTT against Ctnnal1, with inactive: -0.501; and CCUAAGGAGGAUGCGUAUGTT against Mphosph10, with inactive: -0.729; and GGGAAUUCACAGUCAGCCUTT against Il27, with inactive: 0.161.
In the case of GGCUUCGAUGUGUUUAUGCTT against Bend7, the z-score is inactive: -0.0743.
For GCAUGUACCAAGGUUGAUGTT against Klhl17, the z-score is inactive: 1.36.
For the sequence GGGUCUUUAUAAACUCAGUTT against Tyr, the z-score was inactive: 0.0639.
With GGAGCAGAUACAGAAGAUCTT against Pfdn2, the z-score is inactive: -1.21.
On to GGAAGACCAGUAGGACUAGTT against Gast, for which the z-score was inactive: -0.534.
Turning to CCUUCUCAUAAGCUACGGUTT against Pms1, the z-score is inactive: -0.882.
Then GGCACCACUAAUCAUCAGATT against Nampt, with inactive: -0.885; and “GGAGUUCAACAAUGGAUUATT against 1700019M22Rik”, with inactive: 1.27; and CCCAUAACAAACUAAGACGTT against Trpm4, with inactive: -0.182.
Next, GGACAACUGGCUUCAGACATT against Epha10: inactive: -0.104; GGGUGGAAGUGGAAUUUAUTT against C2cd6: inactive: 1.4; GCCCACUGUAUGAAUUGUATT against Plk1: inactive: -1.54.
Next, GGGCUCUUCAUUCAGACUCTT against Zfp513: inactive: -0.866.
For GGAACUUCACUUUUAACACTT against Il33, the z-score was inactive: -0.534.
Then GGCUAUGGCUUUUGUAUGUTT against Arpin, with inactive: -0.0747; and GGACUUCAACAACUGCUCUTT against Polr1a, with active: 2.28.
GCAGUGUCCAAAGCACUUUTT against Slc6a9: the z-score was inactive: -1.14.
Then GCAGCUCAACUAUUCUUGATT against Macir, with inactive: 0.0696.
Then GGAAUUUCACUAUAAUCGCTT against Hoxb6, with inactive: 1.
Then GGCGGAGAAAGUGUUCAUGTT against Ccdc51, with inactive: 0.277.
Consider GGUGGUGGUGCUUUUUGACTT against Tmem86a, for which the z-score is inactive: -0.44.
For the sequence GGGUCUUAAUGGGAUGGCUTT against Tmem241, the z-score was inactive: -0.0277.
Then GGCACAACAUCAUCUGUCUTT against Psmd9, with active: -2.05.
For GGCUCCUCAUUACCUCUACTT against Rrp7a, the z-score is inactive: 0.233.
On to GGAAUUCAUCUGUGGUCUCTT against Trim50, for which the z-score was inactive: -0.559.
Consider CCCUAUCCAUUCAUGGCACTT against Rd3, for which the z-score was inactive: 0.124.
For GGUCCUUCGUAGUUGUGGUTT against Sp110, the z-score is inactive: 1.33.
Consider GGCUUUUAGGUGUAUCAGGTT against Btg4, for which the z-score was inactive: -0.734.
As for GGCAUGUGUUUGAUAAGACTT against Tipin, the z-score was inactive: 0.68.
Next, GGAAACCACAUGCCUGAGATT against Spp2: inactive: -0.43; GGACACCACGUUCACCAAGTT against Rbm38: inactive: -0.36; GGUUGGCCAUAUAAAGAGATT against Hltf: inactive: 1.12.
On to CCCUGCAUUUGUCAAUUAUTT against Hnrnpl, for which the z-score is inactive: -0.161.
Next, GCUCUAGCAACUAAGCGCATT against Fbxw26: inactive: 0.493; CCAGACGAUCUCAUGAUGUTT against Cabs1: inactive: 0.16.
For GGCUGAAGAGAGAUGAAUCTT against Nmur2, the z-score was inactive: -0.581.
Next, CCAAAGAUGCUCCUCACCUTT against Olfr197: inactive: -0.158.
On to GGCAUCAAUCUCUUUGAAATT against AF366264, for which the z-score was inactive: -0.963.
Turning to GGCCCAUCUGAGGAAGCUUTT against Magea4, the z-score was inactive: -1.55.
Regarding GGCUCACAAUUGCUCUGCATT against Psg21, the z-score is inactive: 0.47.
As to GGUUUCUGGAGCGGCCAAATT against Haus8, the z-score is inactive: 0.934.
As for GCAUCCUCCCUUCCCAAUGTT against Sh3bgr, the z-score is inactive: -0.0974.
Then GGAAAAAAUUAAAGAGCACTT against Gmcl1, with active: 2.15; and GGUGUCAGAAAUUUCCAUATT against Pisd, with inactive: -0.601.
Next, GCAUACGGAAUCUUUACGGTT against Asic1: inactive: -1.66; GGUUUAACCAUGGAAGAAATT against Eya3: inactive: -0.224.
Then GCCCGGAAUUUCUCCUUCATT against Prrt1, with inactive: 0.547; and GGGUGGAAGAGUUCAGUUUTT against Ptgr2, with inactive: -1.29.
As for CCAUUGGUUUUGAGGAUAUTT against Pomp, the z-score was inactive: -1.18.
Regarding GGUCCUUAGCUGUUCAUUCTT against Styx, the z-score is inactive: -0.287.
In the case of GGAACAAGCCCUGAAAGUCTT against Prl, the z-score was inactive: 0.415.
Next, GGCCUACUACAUUUUGUCATT against Edrf1: inactive: -0.342; GGUUACAUUUCGUACAAGATT against Ube2e1: inactive: -0.638; CCUUACUCAUCUCAACUUATT against Phlpp1: inactive: -0.396.
On to GGGCUAUGUACCCUAUAAUTT against Eps8l1, for which the z-score was inactive: -1.37.
Turning to CCCUAUGCUAUGCCUGAGUTT against Ampd3, the z-score was inactive: -1.63.
Then GGAGCUGGACAAGUUCAUGTT against Clrn1, with inactive: -0.994.
Next, GGGAUAUCCGCCAUAAUUUTT against Pigm: inactive: -0.0716.
Next, GGAGAACCUGAUGAAGAAGTT against Rai1: inactive: -0.664; CCUCGAGUCACCAACAUCGTT against Stt3b: active: -2.46; GGAUUUGCUGAUUUGUCAATT against Mtfr2: inactive: 0.46.
With GCGAAAGAAGCACGUACCATT against Kcnc4, the z-score was inactive: 0.176.
Then GGUCAACUGAAGAAGAACATT against Trmt10a, with inactive: 1.56.
Then GGUGAUUUUGUUGACAUAATT against Uri1, with inactive: 0.178.
As to GGGAGACCGGCAAAAAAAATT against Pde1b, the z-score is inactive: 0.999.
Then CCCAUGGGUUUUUAAUUGATT against Ptgdr, with inactive: -0.578.
Then GCUUACAAGUACAAAAAUGTT against Smarcc1, with inactive: 0.378; and GGGUCUAAGGGUUCCGUUATT against Abhd15, with inactive: -0.916; and GGUCAUCCUUGCCAAUCUCTT against Olfr686, with active: -2.11.
In the case of GGUCUCUUCUAUUUUUACATT against Agps, the z-score was inactive: -0.367.
GGCAAUUUCUAAACAGGGATT against Atp6v1f: the z-score was active: -2.01.
Then GCUUUAUUGACACGACCCGTT against Rbm19, with inactive: 0.184.
For “GCUUCAAUGACACCAGAAUTT against 6430571L13Rik”, the z-score was inactive: -0.511.
Then GGAAGUAGAGAUCUCCUUATT against Btn1a1, with inactive: 0.96; and GCAGAAAGAGAAUCUCCCGTT against Trp53bp2, with inactive: 0.0521; and CCAGGAACACUAAUAACACTT against Akr1b10, with inactive: 0.314.
Next, GCCAACCUUCAAGGAAUAUTT against Cyp2b10: inactive: 1.4.
CCGGUGAACCCUAUAAAUATT against Ighg3: the z-score was inactive: 0.183.
GGAAAAUUUGCCUGGACCGTT against Pf4: the z-score was inactive: 0.408.

Values taken from PubChem BioAssay AID1508600 (Functional Genomics Laboratory (NCATS/FGL), 2020).
